In PubChem BioAssay AID1671190 (National Center for Advancing Translational Sciences (NCATS), 2021):
Values joined by “and” are separate entries in the source; they are usually repeats but may differ in a detail not shown here. Equal values may be shown once. In all, about 580,000 compounds went through this assay and about 6,100 (1.1%) were called active. This list was built around the results that the source calls inconclusive (neither active nor inactive); the mix of calls is not that of the screen. Calls follow the shape of the dose curve; as a rule, active = well fitted inhibition curve with a large enough effect; inconclusive = small, poorly fitted or top-dose-only effect, or another doubt; inactive = no such curve, though single readings can be large or run the other way. Where the call is inconclusive, the potency comes from a doubtful curve fit.

Amino acid sequences for entries named in this document (tags omitted). A change or cut given only in a name is not applied to a line headed by its entry.
UniProt P18054: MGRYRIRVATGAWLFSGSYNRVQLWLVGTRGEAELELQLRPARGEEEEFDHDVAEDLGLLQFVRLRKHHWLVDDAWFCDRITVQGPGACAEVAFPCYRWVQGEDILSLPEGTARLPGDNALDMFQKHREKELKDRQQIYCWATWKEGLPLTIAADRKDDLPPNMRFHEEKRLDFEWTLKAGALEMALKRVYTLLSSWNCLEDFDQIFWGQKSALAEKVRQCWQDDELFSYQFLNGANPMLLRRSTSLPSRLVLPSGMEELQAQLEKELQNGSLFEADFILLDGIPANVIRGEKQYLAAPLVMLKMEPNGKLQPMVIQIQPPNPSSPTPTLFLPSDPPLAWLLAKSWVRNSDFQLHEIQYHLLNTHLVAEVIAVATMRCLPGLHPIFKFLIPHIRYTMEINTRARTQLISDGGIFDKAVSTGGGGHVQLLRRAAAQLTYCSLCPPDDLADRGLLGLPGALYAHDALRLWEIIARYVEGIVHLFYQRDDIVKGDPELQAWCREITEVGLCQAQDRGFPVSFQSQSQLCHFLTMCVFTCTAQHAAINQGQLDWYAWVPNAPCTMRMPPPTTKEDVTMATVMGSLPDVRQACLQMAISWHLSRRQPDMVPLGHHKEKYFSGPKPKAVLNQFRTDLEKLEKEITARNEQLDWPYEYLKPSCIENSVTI

What follows are compounds tested against Polyunsaturated fatty acid lipoxygenase ALOX12 (Homo sapiens) (UniProt P18054) (assay: Primary qHTS assay for inhibitors of human arachidonate 12S-lipoxygenase (ALOX12): Round 2). Settings: purified 12hLO, xylenol orange hydroperoxide absorbance; activity change, negative = inhibition: at 108 µM (top of the series) unless noted.
In short: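 Purified human 12hLO at 150 nM in 25 mM Hepes, 0.01% Triton X-100, pH 7.0, preincubated 15 min at room temperature with compound. Reaction started with 40 uM arachidonic acid, 30 min at room temperature. Hydroperoxide measured by Fe-xylenol orange, 573/405 nm absorbance ratio.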
% is scaled to controls: 0 for no effect and ±100 for the full control effect; potency is read from the fitted curve at half-maximal effect.

Row | SMILES | Potency | activity change, negative = inhibition
1 | CC(C)(C)C(=O)Nc1oc(-c2ccccc2)c(-c2ccccc2)c1C#N | inconclusive: 3.16 µM [inhibitor, full curve] | –
2 | O=C(O)C[C@@H]1CCN(C(=O)NCc2ccccc2)C[C@@H]1CC1=NCCc2ccccc21 | inconclusive: 28.2 µM [inhibitor, full curve] | –
3 | O=C(C1COc2ccccc2O1)N1CCc2nc3cc(-c4ccccc4)[nH]n3c(=O)c2C1 (stereo unspecified) | inactive | –
4 | COc1cc(/C=C(/C#N)C(=O)Nc2cccc(C(F)(F)F)c2)ccc1OC(F)F | inactive | –
5 | COc1ccc(COCCN2CCN(S(=O)(=O)c3ccc(C)cc3)CCC2=O)cc1 | inconclusive: 126 µM [inhibitor, single point] | –
6 | COC(=O)c1ccccc1NC(=O)CNCCc1ccc(OC)c(OC)c1 | inconclusive: 3.16 µM [inhibitor, full curve, poor fit] | –
7 | O=c1cc(CSc2nnc(COc3ccccc3)n2-c2ccccc2)c2ccccc2[nH]1 | inconclusive: 0.631 µM [inhibitor, full curve, poor fit] | –
8 | COc1cc(-c2cc(=O)c3c(O)c(OC)c(OC)c(O)c3o2)ccc1O | inconclusive: 50.1 µM [inhibitor, partial curve, poor fit] | –
9 | O=C1C(=O)N(CCO)C(c2ccccc2)/C1=C(\O)c1ccccc1 (stereo unspecified) | inconclusive: 22.4 µM [inhibitor, partial curve] | –
10 | CCOc1ccc(C2C(=O)N(C3CCCCCC3)CC(=O)N2Cc2ccc(F)cc2)cc1OC (stereo unspecified) | – | inconclusive: -33.7% [inhibitor]
11 | CCN(CC)c1ccc(NC(=O)CN(C)S(=O)(=O)c2cccc3nsnc23)c(C)c1 | inconclusive: 126 µM [inhibitor, single point] | –
12 | FC(F)(F)c1cnc(-c2cnc3c(-c4ccc(Cl)cc4)cnn3c2)c(Cl)c1 | inactive | –
13 | CCn1c(=O)c2sccc2n(CC(=O)N2CCOc3ccc(C)cc32)c1=O | inconclusive: 50.1 µM [inhibitor, partial curve, poor fit] | –
14 | C/C=C/Cn1c(SCc2ccc(Cl)cc2)nc2c1c(=O)[nH]c(=O)n2C | inactive and inconclusive: 70.8 µM [inhibitor, partial curve, poor fit] | –
15 | CCOc1ccc(CCNC(=O)C(CC(C)C)N2Cc3ccccc3C2=O)cc1OCC (stereo unspecified) | inactive | –
16 | COC[C@@H]1CN(S(=O)(=O)c2ccc3c(c2)CCCC3)C[C@H]1C(N)=O | inactive | –
17 | CC(CCc1ccccc1)NC(=O)CNC(=S)N(Cc1cccs1)C1CCCC1 (stereo unspecified) | inconclusive: 17.8 µM [inhibitor, full curve, poor fit] | –
18 | C#Cc1cccc(NC(=O)c2ccc(Cl)cc2Cl)c1 | inactive | –
19 | O=C1CCCc2c1oc1c2CCCC1 | inconclusive: 39.8 µM [inhibitor, partial curve, poor fit] | –
20 | COCc1nnc(NC(=O)Cn2ccc3c(Cl)cccc32)s1 | inactive | –
21 | Cc1cc(Cl)c(OCCCCN2CCOCC2)c(Br)c1 | inconclusive: 0.447 µM [inhibitor, full curve, poor fit] | –

4 entries out of the list, ordered by molar mass, largest number first:
Row | SMILES | Potency | activity change, negative = inhibition
17 | CC(CCc1ccccc1)NC(=O)CNC(=S)N(Cc1cccs1)C1CCCC1 (stereo unspecified) | inconclusive: 17.8 µM [inhibitor, full curve, poor fit] | –
3 | O=C(C1COc2ccccc2O1)N1CCc2nc3cc(-c4ccccc4)[nH]n3c(=O)c2C1 (stereo unspecified) | inactive | –
4 | COc1cc(/C=C(/C#N)C(=O)Nc2cccc(C(F)(F)F)c2)ccc1OC(F)F | inactive | –
9 | O=C1C(=O)N(CCO)C(c2ccccc2)/C1=C(\O)c1ccccc1 (stereo unspecified) | inconclusive: 22.4 µM [inhibitor, partial curve] | –

Continuation.

Row | SMILES | Potency | activity change, negative = inhibition
22 | CCc1nc2c(OCc3ccc(Cl)cc3)cccn2c1N(C)C(=O)c1ccccc1F | inactive | –
23 | Cc1ccc2nc(-c3cccc(Br)c3)c(CC3CCCCC3)n2c1 | inconclusive: 44.7 µM [inhibitor, partial curve, poor fit] | –
24 | COC(=O)/C(C#N)=C\c1ccc(OCc2ccc(Cl)cc2)c(OC)c1 | inconclusive: 50.1 µM [inhibitor, partial curve, poor fit] | –
25 | COc1cccc(CNC(=O)CCn2ccc3cc(S(=O)(=O)N4CCC(C)CC4)ccc32)c1 | inactive | –
26 | Cc1noc(C)c1S(=O)(=O)N1CC(c2noc(C3CCCN3C)n2)C1 (stereo unspecified) | inactive | –
27 | COc1ccc(OC)c(CNc2ccc3c(c2)nc(C)n3C)c1 | inconclusive: 31.6 µM [inhibitor, full curve, poor fit] | –
28 | Cc1onc(-c2c(Cl)cccc2Cl)c1C(=O)O/N=C(\C#N)c1c(Cl)cccc1Cl | inconclusive: 100 µM [inhibitor, single point] | –
29 | CCCCCNC(=O)C(c1ccncc1)n1c(=O)c(-c2ccco2)nc2ccccc21 (stereo unspecified) | inactive | –
30 | S=C(NCCc1cccc(Cl)c1)NC1CCCCC1 | inconclusive: 17.8 µM [inhibitor, partial curve, poor fit] | –
31 | CCCOc1ccc(Cc2c(COCC)[nH]c(=S)[nH]c2=O)cc1 | inconclusive: 79.4 µM [inhibitor, partial curve, poor fit] | –
32 | N#Cc1cccc(C(=O)c2ccc3c(c2)OCCO3)c1 | inconclusive: 56.2 µM [inhibitor, partial curve, poor fit] | –
33 | COc1ccccc1Oc1ccc2c(c1)C(=O)N(c1cccc3ncccc13)C2=O | inactive | –
34 | CCNC(=S)N(CCc1cccc(C)c1)Cc1cc2cc(OC)c(OC)cc2[nH]c1=O | inconclusive: 50.1 µM [inhibitor, partial curve, poor fit] | –
35 | CCOc1ccccc1N1CCN(CC(=O)Nc2ccccc2C(=O)NC2CC2)CC1 | inconclusive: 79.4 µM [inhibitor, partial curve, poor fit] | –
36 | COc1ccc(N2CCN(C(=O)CN3c4cccc5cccc(c45)S3(=O)=O)CC2)cc1 | inconclusive: 4.47 µM [inhibitor, full curve, poor fit] | –
37 | Cc1ccc(C(=O)N/C(=C/c2ccco2)C(=O)Nc2cccc(C)c2)cc1 | inconclusive: 17.8 µM [inhibitor, full curve] | –
38 | Cc1nc(SCc2cc(=O)c3cccc(F)c3[nH]2)n[nH]1 | inconclusive: 50.1 µM [inhibitor, partial curve, poor fit] | –
39 | CNCCN(C)C(=O)C1CCCN(C2CCN(C3Cc4ccccc4C3)CC2)C1 (stereo unspecified) | inconclusive: 3.16 µM [inhibitor, full curve, poor fit] | –
40 | COc1cc(/C=C2\CCCc3c2nc2ccccc2c3C(=O)O)cc(OC)c1O | inconclusive: 28.2 µM [inhibitor, partial curve, poor fit] | –
41 | COc1ccccc1S(=O)(=O)NCc1ccc(C(=O)Nc2ccc(N3CCCCC3)cc2)cc1 | inconclusive: 63.1 µM [inhibitor, partial curve, poor fit] | –
